Measured values reported in patent US7122184B2, “Specific monoclonal antibody against terbinafine” (Novartis AG, priority 2000, dated 2006).
Some of these results come from one statement about several compounds together.

System: purified antibodies from hybridoma cell line LAM-JA
Experiment: Competitive ELISA for terbinafine derivatives (crossreactivity)
Type: binding, mice
Settings: relative to terbinafine at B/B0=50%, calculated from FIG. 1; mAb LAM-JA
Description: The antibodies of the invention are screened and characterized in conventional manner, e.g. according to their ability to distinguish between terbinafine and its metabolites and derivatives, e.g. by determination of relative cross-reactivity. […] (1994), Stockton Press, p. 89). Relative crossreactivity is the concentration of analyte giving 50% at the point where the reduction in signal corresponds to 50% of the signal achieved in the absence of analyte (ratio B/B0 of 50%), as a percentage of the analyte concentration giving the same fall in signal.
Microtiter plates are coated with 5 μg/ml terbinafine hydrochloride—protein (BSA) conjugate in carbonate buffer overnight at 4°, then saturated with blocking reagent [SuperBloc® buffer (Pierce)] and washed 3× with 0.05% (v/v) PBS-TWEEN® (polyoxyethylene 20 sorbitan monoleate). […] Level of bound antibody is measured by anti-mouse IgG rabbit immunoglobulin coupled to horseradish peroxidase with OPD as the substrate. After incubation for one hour at room temperature the enzymatic substrate is hydrolyzed and absorbance at 490/650 nm is measured after 15 minutes incubation in the dark.
The direct ELISA according to Example 3 above is converted to a competitive ELISA wherein a competitor is added to the monoclonal antibody solution, and binding of the mAB to the conjugate in the presence and absence of the competitor is measured. […]

SMILES	% crossreactivity [%]
CN(C/C=C/C#CC(C)(C)CO)Cc1cccc2ccccc12 [Hydroxy-terbinafine, (E)-2,2-dimethyl-7-[methyl(naphthalen-1-ylmethyl)amino]hept-5-en-3-yn-1-ol]	≥ 67
CN(C/C=C/C#CC(C)(C)C(=O)O)Cc1cccc2ccccc12 [Carboxy-terbinafine, (E)-2,2-dimethyl-7-[methyl(naphthalen-1-ylmethyl)amino]hept-5-en-3-ynoic acid]	≥ 67
